Measured values as given in paper doi:10.1101/681304.
No constants are given. Whether binding was seen depends on the method and setting. In cells and extracts the contact can be indirect. Some binding calls cover weakened binding; strength is not graded here. Where a sequence is shown, tags or fusion partners need not be part of it.

The chains behind the UniProt entries cited, without tags or fusion partners. Residues count along the entry.
UniProt Q9ULZ3, residues 107-195: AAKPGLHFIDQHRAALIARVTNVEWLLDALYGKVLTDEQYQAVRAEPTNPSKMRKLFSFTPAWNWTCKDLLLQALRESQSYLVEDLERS
UniProt Q9Y2G2, residues 446-536: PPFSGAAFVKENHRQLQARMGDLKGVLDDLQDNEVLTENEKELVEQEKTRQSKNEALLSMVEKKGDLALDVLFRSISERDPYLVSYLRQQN

T1: CASP1 CARD domain (CASP1^CARD), SmBiT- or LgBiT-tagged (not stated (human or mouse cDNA cloned)), P29466
T1 chain: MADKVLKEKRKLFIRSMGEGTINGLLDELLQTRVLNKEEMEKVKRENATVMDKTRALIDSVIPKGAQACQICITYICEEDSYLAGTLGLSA


Assays:
Experiment in all cases: split reporter
[1] = target: CASP1 CARD domain (CASP1^CARD), SmBiT- or LgBiT-tagged (not stated (human or mouse cDNA cloned)) (UniProt P29466)
[2] = target: ASC CARD domain (ASC^CARD), SmBiT- or LgBiT-tagged (human) (UniProt Q9ULZ3)
[3] = target: T1, CASP1 CARD domain (CASP1^CARD), SmBiT- …; settings: remark: other sources report otherwise

binding [1]	binding [2]	binding [3]	Molecule
binds			ASC CARD domain (ASC^CARD), SmBiT- or LgBiT-tagged (from UniProt Q9ULZ3 107-195) (domain or fragment)
		binds	CASP1 CARD domain (CASP1^CARD), SmBiT- or LgBiT-tagged, P29466 1-91 (domain or fragment) MADKVLKEKRKLFIRSMGEGTINGLLDELLQTRVLNKEEMEKVKRENATVMDKTRALIDSVIPKGAQACQICITYICEEDSYLAGTLGLSA

The next lines start with the molecule.

Molecule	binding [1]	binding [2]	binding [3]
CARD8 CARD domain (CARD8^CARD), NanoBiT-tagged (from UniProt Q9Y2G2 446-536) (domain or fragment)	binds	no binding	
CASP1 CARD domain (CASP1^CARD), SmBiT- or LgBiT-tagged (from UniProt P29466 1-91) (domain or fragment)		binds	
NLRP1 CARD domain (NLRP1^CARD), NanoBiT-tagged (domain or fragment, UniProt Q9C000 1374-1463) DAPQLLHFVDQYREQLIARVTSVEVVLDKLHGQVLSQEQYERVLAENTRPSQMRKLFSLSQSWDRKCKDGLYQALKETHPHLIMELWEKG	no binding	binds	
